Experimental data reported in patent publication US20110144187, “APTAMER INHIBITION OF THROMBUS FORMATION” (published 2011).
For at least one entry, the source does not settle the construct or the ends of the probe.

Chains of the proteins cited; added tags and fusions are not shown. A line that says so, or that is headed by a name, gives the form on record, which may keep a tag or linker.
fibrinogen (Homo sapiens), one chain, as listed by the source, chain 2 of 3: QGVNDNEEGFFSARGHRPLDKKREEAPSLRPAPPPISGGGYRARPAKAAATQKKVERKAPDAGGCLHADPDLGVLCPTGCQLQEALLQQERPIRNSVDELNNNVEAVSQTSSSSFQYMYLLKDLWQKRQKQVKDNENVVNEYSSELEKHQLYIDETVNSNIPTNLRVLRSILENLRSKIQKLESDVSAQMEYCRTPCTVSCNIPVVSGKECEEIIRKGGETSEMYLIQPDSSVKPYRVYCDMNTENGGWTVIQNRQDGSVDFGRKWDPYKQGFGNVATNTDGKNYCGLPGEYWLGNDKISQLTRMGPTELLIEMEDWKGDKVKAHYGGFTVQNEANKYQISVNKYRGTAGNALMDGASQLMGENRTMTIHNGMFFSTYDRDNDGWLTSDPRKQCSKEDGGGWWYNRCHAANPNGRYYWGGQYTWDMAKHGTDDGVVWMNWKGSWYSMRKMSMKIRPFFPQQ
fibrinogen (Homo sapiens), one chain, as listed by the source, chain 3 of 3: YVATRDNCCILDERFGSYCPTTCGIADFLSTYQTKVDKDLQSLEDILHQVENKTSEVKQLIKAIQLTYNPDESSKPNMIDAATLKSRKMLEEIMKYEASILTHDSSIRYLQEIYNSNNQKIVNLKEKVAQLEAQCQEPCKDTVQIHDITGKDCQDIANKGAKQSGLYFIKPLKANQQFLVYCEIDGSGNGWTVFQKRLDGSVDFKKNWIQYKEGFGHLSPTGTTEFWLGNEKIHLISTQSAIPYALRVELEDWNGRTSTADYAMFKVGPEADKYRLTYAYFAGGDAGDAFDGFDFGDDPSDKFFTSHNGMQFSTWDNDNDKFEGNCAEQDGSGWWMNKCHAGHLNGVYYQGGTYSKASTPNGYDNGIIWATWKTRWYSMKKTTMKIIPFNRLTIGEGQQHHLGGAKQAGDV
fibrinogen (Homo sapiens), one chain, as listed by the source, chain 1 of 3: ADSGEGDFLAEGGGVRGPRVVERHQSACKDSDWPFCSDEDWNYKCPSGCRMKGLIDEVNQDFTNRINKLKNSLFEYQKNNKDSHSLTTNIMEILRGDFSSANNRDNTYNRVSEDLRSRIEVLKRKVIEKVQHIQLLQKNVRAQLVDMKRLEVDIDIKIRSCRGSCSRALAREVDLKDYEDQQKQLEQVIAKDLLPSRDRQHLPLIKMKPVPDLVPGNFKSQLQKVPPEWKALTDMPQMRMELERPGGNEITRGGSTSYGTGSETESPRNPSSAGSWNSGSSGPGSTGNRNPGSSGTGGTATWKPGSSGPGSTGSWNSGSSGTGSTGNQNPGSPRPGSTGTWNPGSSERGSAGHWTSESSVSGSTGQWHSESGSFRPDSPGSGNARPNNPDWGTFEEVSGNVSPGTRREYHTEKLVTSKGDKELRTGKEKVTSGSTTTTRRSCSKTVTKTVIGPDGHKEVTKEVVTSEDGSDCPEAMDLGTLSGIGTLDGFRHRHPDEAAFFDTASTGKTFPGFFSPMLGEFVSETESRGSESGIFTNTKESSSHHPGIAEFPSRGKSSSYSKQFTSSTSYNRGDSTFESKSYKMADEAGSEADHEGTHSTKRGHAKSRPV

Tested on: fibrinogen (Homo sapiens)
Assay: SPR
Conditions: quinoline-8-boronic acid-modified T (B-TTP) replacing T outside the primer region; biotin-aptamer on streptavidin chip; purified native protein; label: 32P (filtration) or 5'-biotin (SPR); single-stranded DNA

## CCTTCGTTGTCTGCCTTCGTAGGACCGCAGACATCGACGCAGGGAAATTCCGCAAGTCCAGCCAAATGCCACCCTTCAGAATTCGCACCA [85B B-TTP (114O)]
  Kd: 10.1 nM
